This passage reports binding results from patent US20190322748A1.

The target in this test is biotinylated cynoPD1-ECD-Biotin (cynomolgus). Kind of test: ELISA, cynomolgus cross-reactivity.

These are yes or no findings as the source states them, for the method shown. Binding calls can cover weak binding; strength is not graded here.

B1: chimeric PD1-0103 (antibody, human IgG1, V domains shown)
VH: EVILVESGGGLVKPGGSLKLSCAASGFSFSSYTMSWVRQTPEKRLDWVATISGGGRDIYYPDSVKGRFTISRDNAKNTLYLEMSSLMSEDTALYYCVLLTGRVYFALDSWGQGTSVTVSS
VL: KIVLTQSPASLPVSLGQRATISCRASESVDTSDNSFIHWYQQRPGQSPKLLIYRSSTLESGVPARFSGSGSRTDFTLTIDPVEADDVATYYCQQNYDVPWTFGGGTKLEIK
Take B1: the binding result was “binds”.
